# Measured values reported in paper PMC11181667.
# The chains behind the UniProt entries cited, without tags or fusion partners.
# UniProt Q13546: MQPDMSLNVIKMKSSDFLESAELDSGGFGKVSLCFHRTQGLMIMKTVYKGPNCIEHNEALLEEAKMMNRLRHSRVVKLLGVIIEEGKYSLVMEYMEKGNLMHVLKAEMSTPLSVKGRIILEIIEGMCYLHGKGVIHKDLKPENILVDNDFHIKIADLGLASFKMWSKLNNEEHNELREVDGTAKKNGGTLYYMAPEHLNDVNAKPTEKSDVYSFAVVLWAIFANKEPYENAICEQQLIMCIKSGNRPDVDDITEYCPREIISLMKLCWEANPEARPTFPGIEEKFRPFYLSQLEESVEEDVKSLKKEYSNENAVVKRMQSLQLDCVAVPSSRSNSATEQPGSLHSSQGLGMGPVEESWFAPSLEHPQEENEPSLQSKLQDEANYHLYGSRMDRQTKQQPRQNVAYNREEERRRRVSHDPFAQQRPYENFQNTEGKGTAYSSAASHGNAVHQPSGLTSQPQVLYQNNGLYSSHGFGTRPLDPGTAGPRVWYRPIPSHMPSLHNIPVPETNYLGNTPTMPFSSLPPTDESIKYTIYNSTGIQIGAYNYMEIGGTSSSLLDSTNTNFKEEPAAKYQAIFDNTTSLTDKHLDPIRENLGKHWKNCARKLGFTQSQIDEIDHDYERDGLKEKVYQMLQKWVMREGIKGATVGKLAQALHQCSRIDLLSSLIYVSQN
# No constants are given. Whether binding was seen depends on the method and setting. Binding seen in cells or lysates may run through a third protein. A yes stands for co-enrichment or nearness to the bait. Other partners may have been found.
# Molecular target: T1, OTUD6B (human (endogenous in LUAD cell lines)) (UniProt Q8N6M0)
# T1 sequence: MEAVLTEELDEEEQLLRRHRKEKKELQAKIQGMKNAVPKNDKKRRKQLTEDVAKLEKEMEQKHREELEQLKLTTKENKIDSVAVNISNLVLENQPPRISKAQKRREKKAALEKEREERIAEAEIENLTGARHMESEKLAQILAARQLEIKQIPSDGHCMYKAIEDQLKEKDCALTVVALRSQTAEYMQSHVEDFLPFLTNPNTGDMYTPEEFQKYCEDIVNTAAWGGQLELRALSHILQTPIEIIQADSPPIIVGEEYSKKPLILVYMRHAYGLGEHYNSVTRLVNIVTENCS
# Assay: affinity purification with mass spectrometry; LUAD cell lysates in NP-40 lysis buffer (150 mM NaCl, 10 mM HEPES pH 7.4), IP with anti-OTUD6B antibody and protein G agarose at 4 °C overnight; SDS-PAGE, Coomassie staining, specific bands analysed by mass spectrometry
substance,measurement,value
Receptor interacting serine/threonine kinase 1 (RIPK1) (from UniProt Q13546 1-671) (enzyme),binding,binds
